Experimental data: publication PMC9126915
No constants are given. Whether binding was seen depends on the method and setting. Some binding calls cover weakened binding; strength is not graded here.

Sequences of proteins named here, by UniProt entry; tags and fusion partners are left off. Residues count along the entry.
UniProt P08670: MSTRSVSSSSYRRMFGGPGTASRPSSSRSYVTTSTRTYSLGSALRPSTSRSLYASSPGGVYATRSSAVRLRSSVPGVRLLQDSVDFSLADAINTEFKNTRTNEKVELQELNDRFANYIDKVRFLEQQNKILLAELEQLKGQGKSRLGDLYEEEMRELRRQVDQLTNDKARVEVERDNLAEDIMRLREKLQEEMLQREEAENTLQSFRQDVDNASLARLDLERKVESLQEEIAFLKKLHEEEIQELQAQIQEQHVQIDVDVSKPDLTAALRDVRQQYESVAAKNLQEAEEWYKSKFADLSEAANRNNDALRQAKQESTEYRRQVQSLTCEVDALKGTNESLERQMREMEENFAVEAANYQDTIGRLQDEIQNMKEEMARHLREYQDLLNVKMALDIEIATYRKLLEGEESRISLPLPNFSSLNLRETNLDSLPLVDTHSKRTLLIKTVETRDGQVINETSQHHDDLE
UniProt P35968, residues 20-764: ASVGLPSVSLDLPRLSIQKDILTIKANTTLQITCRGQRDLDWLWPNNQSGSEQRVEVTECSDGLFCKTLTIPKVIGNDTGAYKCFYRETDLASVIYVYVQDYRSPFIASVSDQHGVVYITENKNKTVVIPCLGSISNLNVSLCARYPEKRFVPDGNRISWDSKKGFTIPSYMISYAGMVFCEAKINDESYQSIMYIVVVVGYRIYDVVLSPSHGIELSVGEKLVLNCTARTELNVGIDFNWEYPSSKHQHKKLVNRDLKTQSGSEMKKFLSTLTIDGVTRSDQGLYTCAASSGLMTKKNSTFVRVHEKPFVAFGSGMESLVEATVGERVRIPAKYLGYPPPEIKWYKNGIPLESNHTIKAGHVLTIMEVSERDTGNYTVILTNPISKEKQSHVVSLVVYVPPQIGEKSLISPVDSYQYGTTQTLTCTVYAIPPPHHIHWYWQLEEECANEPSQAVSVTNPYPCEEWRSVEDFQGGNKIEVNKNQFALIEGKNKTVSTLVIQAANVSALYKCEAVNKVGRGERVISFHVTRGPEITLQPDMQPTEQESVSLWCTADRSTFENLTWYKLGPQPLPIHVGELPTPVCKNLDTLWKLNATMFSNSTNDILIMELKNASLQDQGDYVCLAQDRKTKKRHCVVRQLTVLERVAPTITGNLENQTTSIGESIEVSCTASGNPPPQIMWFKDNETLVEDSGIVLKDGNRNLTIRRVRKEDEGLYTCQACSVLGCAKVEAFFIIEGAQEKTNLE

Legend:
[1] = biological target: recombinant human vimentin (human) (UniProt P08670); test: ELISA; vimentin, VEGF or BSA (2 µg/ml) coated; blocked with 4% non-fat dry milk in PBS; VEGFR2-Fc added at 10 ng/ml to 5 µg/ml; detected with biotinylated goat-anti-human Fc antibody and streptavidin-HRP; both purified
[2] = biological target: recombinant human vimentin (human) (UniProt P08670); test: far-Western, overlay or dot blot; spot blot, reciprocal: vimentin, VEGFR2 or BSA spotted on nitrocellulose, blocked, incubated with vimentin, VEGFR2 or BSA; bound protein detected with anti-vimentin or anti-VEGFR2 antibodies; both purified
[3] = biological target: VEGFR2-Fc (UniProt P35968); test: SPR; Biacore T200, CM5 chip; VEGFR2-Fc immobilised by amine coupling (~900 RU); concentration series of vimentin or VEGF injected in PBS, 0.05% Tween-20, pH 7.4, 30 µl/min, 25 °C, 180 s association, 240 s dissociation; double referenced; n = 1; both purified
[4] = biological target: VEGFR2-Fc (UniProt P35968); test: far-Western, overlay or dot blot; spot blot, reciprocal: vimentin, VEGFR2 or BSA spotted on nitrocellulose, blocked, incubated with vimentin, VEGFR2 or BSA; bound protein detected with anti-vimentin or anti-VEGFR2 antibodies; both purified

binding [1]	binding [2]	binding [3]	binding [4]	Substance
binds	binds			VEGFR2-Fc (from UniProt P35968 20-764) (Fc fusion)
		binds	binds	recombinant human vimentin (from UniProt P08670 1-466)
